According to publication PMC9855946:
No constants are given. Whether binding was seen depends on the method and setting. Some results given as binding are weak or reduced against the parent protein; the word gives no strength.

Target: Thermotoga maritima encapsulin with a 10 Histidine tag after residue 127 (EncH) (Thermotoga maritima) (UniProt Q9WZP2)
Experiment: negative-stain transmission electron microscopy; purified cages (EncH{} and EncH{FLP}; cargo produced along with the cage in E. coli and purified with it by the His-tag of Enc and SEC) on Formvar carbon-coated copper grids, 1% uranyl acetate, 300 kV; both purified

binding: binds
B1: ferritin-like protein (FLP), native cargo of Thermotoga maritima encapsulin (protein, UniProt Q9WZP3 1-114)
chain: MADQYHEPVSELTGKDRDFVRALNSLKEEIEAVAWYHQRVVTTKDETVRKILEHNRDEEMEHAAMLLEWLRRNMPGWDEALRTYLFTDKPITEIEEETSGGSENTGGDLGIRKL
